From PMC7987981 come the findings set out here.

What all share (assay): co-IP; HEK293T co-transfected with NPAS3-FLAG or NPAS4-Myc/FLAG variant and ARNT2-Strep; 500 ug whole cell extract on anti-FLAG M2 affinity gel, 3 h at 4 C; washed with 150 mM NaCl, 10 mM Tris/HCl pH 8.0, 0.1% NP-40, 5% glycerol; eluted with 3xFLAG peptide; blot with anti-FLAG then anti-Strep
Assay [1] has as its target NPAS4 170X-Myc/FLAG (c.508C>T nonsense variant) (human) (UniProt Q8IUM7).
Assay [2] has as its target T1, NPAS4-Myc/FLAG wildtype (neuronal PAS 4) (human) (UniProt Q8IUM7).
T1 sequence: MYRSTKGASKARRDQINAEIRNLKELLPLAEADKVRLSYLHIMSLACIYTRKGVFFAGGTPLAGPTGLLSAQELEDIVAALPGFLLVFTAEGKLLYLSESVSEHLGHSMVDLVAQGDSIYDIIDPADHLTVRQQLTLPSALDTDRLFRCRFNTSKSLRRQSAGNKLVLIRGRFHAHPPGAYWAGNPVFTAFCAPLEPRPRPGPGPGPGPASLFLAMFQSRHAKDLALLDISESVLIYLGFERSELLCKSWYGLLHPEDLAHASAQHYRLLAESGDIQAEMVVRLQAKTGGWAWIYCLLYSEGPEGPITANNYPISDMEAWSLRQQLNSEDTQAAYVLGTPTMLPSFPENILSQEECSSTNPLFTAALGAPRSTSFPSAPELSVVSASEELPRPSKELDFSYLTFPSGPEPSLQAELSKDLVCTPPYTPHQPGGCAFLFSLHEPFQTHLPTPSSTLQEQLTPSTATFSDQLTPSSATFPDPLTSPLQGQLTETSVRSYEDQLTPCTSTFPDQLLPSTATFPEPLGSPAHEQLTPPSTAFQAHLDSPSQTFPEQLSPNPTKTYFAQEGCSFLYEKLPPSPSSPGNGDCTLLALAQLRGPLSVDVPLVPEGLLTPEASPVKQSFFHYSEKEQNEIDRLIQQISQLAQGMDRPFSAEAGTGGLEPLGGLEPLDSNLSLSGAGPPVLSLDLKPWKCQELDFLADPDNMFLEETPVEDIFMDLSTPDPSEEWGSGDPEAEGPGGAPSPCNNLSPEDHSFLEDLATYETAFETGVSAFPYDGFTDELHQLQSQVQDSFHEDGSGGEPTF

Assay [3] deals with T2, NPAS3-FLAG wildtype (neuronal PAS 3) (human) (UniProt Q8IXF0).
T2 sequence: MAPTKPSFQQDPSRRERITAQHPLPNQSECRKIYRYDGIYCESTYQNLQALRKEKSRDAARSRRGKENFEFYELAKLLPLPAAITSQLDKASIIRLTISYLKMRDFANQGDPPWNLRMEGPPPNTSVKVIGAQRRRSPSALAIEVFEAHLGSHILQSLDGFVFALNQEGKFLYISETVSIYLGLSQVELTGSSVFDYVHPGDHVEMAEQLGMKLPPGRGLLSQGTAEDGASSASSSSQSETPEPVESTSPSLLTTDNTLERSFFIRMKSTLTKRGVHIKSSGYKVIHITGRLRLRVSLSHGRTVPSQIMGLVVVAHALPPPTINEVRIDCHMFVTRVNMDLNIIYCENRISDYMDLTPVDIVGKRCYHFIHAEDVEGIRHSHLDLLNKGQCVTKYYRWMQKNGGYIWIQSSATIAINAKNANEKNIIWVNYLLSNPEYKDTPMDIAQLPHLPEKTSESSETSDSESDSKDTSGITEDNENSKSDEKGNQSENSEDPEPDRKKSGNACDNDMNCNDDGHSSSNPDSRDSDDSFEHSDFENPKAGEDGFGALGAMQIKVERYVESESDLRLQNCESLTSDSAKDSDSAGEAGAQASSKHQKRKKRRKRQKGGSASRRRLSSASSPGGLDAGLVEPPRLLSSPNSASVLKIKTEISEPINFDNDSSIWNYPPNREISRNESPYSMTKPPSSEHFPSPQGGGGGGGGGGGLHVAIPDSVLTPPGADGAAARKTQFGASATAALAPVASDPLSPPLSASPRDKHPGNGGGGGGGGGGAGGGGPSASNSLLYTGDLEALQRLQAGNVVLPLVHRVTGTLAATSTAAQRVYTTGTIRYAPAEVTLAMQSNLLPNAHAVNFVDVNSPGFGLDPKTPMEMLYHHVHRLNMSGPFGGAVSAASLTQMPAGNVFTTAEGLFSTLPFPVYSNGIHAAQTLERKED

No constants are given. Whether binding was seen depends on the method and setting. In cells and extracts the contact can be indirect. Some binding calls cover weakened binding; strength is not graded here. For part of these data: Tags and fused reporters may be left off the sequences shown.

As for “ARNT2-Strep (from UniProt Q9HBZ2-1 1-717)”, the binding result is given as “no binding” in assay [1], “binds” in assay [2] and “binds” in assay [3].
